{
  "source": "paper PMC5838106",
  "about": "“Cathelicidin promotes inflammation by enabling binding of self-RNA to cell surface scavenger receptors” (Scientific Reports, 2018)",
  "system": "dsRNA",
  "test": "Synchrotron SAXS of peptide-dsRNA complexes",
  "format": "binding",
  "settings": "for inter-dsRNA spacing of peptide-dsRNA complex: peptide 10 mg/mL with dsRNA 5 mg/mL; for first peak position q of peptide-dsRNA complex: q10 for square lattices, q1 for columnar lattice",
  "note": "Where no end group is shown, it is not given here.",
  "data": [
    {"substance": "LL37", "values": [
      {"measurement": "inter-dsRNA spacing of peptide-dsRNA complex", "result": 3.65, "unit": "nm"},
      {"measurement": "first peak position q of peptide-dsRNA complex", "result": 0.172, "unit": "Å^−1"}
    ]},
    {"substance": "LLGDFFRKSKEKIGKEFKRIVQRIKDFLRNLVPR [LL34]", "values": [
      {"measurement": "nanocrystal size L of peptide-dsRNA complex", "setting": "average domain size from first peak width", "result": 9.0, "unit": "nm"},
      {"measurement": "inter-dsRNA spacing of peptide-dsRNA complex", "result": 3.76, "unit": "nm"},
      {"measurement": "first peak position q of peptide-dsRNA complex", "result": 0.167, "unit": "Å^−1"}
    ]}
  ]
}
